{"source": "patent US20080241274A1", "about": "(ZIOPHARM Oncology, Inc., priority 2006, published 2008)", "test_system": "MCF-7 ER-positive breast cancer", "assay": "Monolayer assay (DNA content by propidium iodide), single agents and indibulin combinations, MCF-7", "type": "cell-based, human", "conditions": "MCF7, single agent (combination study)", "experimental": "The monolayer assay determines the in vitro antitumor activity of test compounds and their capacity to inhibit survival and proliferation of established tumor cell lines. These effects can be determined by establishing the number of viable cells based on measuring the DNA content using propidium iodide. […] Between 5,000 and 10,000 cells were seeded in 96 well plates on Day 0 and the compounds were added 1 day later and incubated for 4 days. The activity was assessed by their IC50 and IC70 values.\nGrowth IC50 and IC70 values (Table 2) were determined using XLfit software package, and used to set the concentration ranges and drug ratios for the synergy detection part of the study.\nChou-Talalay median effect method was used to quantitatively characterize drug-drug interaction [Chou T. C. Theoretical basis, experimental design, and computerized simulation of synergism and antagonism in drug combination studies. Pharmacol Rev. 2006 September; 58(3):621-81]. […] Additionally, single agent dose response was determined for the same concentration ranges as used for combination study.\nThe coefficient of interaction (CI(IC50)) at IC50 and coefficient of interaction under optimal experimental concentrations (CI(e)) were determined using CalcuSyn software package (Table 3, tests were performed in quadruplicate, mean values reported). […]", "note": "The name of at least one read-out is uncertain."}
{"smiles": "O=C(Nc1ccncc1)C(=O)c1cn(Cc2ccc(Cl)cc2)c2ccccc12", "note": "[Indibulin, N-(pyridin-4-yl)-[1-(4-chlorobenzyl)-indol-3-yl]-glyoxylic acid amide]", "values": [{"measurement": "Single Agent IC50", "result": 0.014, "unit": "µg/mL"}]}
